Results are given in words; binding and its absence hold for the method and conditions named. Binding seen in cells or lysates may run through a third protein. Some results given as binding are weak or reduced against the parent protein; the word gives no strength.
Target: MYC-tagged wild-type SOX9 (lentiviral, plKO TRE) (UniProt Q04887)
Assay: co-IP; cultured EpdSC lysates with or without DOX induction of MYC-tagged SOX9 or its variants; anti-myc tag antibody on protein-A/G magnetic beads; immunoblot for MLL4, cJUN or ARID1a

The chains behind the UniProt entries cited, without tags or fusion partners.
UniProt Q04887: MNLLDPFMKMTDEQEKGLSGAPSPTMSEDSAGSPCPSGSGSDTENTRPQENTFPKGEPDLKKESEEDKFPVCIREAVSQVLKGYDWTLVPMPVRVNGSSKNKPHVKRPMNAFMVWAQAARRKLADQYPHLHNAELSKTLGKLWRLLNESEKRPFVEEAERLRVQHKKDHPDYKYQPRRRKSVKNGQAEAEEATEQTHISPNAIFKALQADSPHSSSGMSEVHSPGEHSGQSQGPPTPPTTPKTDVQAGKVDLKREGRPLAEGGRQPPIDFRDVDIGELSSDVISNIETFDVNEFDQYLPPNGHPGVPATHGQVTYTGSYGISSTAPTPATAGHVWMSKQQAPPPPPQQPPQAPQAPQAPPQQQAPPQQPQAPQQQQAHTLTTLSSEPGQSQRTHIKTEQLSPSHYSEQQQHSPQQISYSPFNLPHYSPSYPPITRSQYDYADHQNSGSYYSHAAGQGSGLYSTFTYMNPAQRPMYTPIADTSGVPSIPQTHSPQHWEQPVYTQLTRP
UniProt A2BH40: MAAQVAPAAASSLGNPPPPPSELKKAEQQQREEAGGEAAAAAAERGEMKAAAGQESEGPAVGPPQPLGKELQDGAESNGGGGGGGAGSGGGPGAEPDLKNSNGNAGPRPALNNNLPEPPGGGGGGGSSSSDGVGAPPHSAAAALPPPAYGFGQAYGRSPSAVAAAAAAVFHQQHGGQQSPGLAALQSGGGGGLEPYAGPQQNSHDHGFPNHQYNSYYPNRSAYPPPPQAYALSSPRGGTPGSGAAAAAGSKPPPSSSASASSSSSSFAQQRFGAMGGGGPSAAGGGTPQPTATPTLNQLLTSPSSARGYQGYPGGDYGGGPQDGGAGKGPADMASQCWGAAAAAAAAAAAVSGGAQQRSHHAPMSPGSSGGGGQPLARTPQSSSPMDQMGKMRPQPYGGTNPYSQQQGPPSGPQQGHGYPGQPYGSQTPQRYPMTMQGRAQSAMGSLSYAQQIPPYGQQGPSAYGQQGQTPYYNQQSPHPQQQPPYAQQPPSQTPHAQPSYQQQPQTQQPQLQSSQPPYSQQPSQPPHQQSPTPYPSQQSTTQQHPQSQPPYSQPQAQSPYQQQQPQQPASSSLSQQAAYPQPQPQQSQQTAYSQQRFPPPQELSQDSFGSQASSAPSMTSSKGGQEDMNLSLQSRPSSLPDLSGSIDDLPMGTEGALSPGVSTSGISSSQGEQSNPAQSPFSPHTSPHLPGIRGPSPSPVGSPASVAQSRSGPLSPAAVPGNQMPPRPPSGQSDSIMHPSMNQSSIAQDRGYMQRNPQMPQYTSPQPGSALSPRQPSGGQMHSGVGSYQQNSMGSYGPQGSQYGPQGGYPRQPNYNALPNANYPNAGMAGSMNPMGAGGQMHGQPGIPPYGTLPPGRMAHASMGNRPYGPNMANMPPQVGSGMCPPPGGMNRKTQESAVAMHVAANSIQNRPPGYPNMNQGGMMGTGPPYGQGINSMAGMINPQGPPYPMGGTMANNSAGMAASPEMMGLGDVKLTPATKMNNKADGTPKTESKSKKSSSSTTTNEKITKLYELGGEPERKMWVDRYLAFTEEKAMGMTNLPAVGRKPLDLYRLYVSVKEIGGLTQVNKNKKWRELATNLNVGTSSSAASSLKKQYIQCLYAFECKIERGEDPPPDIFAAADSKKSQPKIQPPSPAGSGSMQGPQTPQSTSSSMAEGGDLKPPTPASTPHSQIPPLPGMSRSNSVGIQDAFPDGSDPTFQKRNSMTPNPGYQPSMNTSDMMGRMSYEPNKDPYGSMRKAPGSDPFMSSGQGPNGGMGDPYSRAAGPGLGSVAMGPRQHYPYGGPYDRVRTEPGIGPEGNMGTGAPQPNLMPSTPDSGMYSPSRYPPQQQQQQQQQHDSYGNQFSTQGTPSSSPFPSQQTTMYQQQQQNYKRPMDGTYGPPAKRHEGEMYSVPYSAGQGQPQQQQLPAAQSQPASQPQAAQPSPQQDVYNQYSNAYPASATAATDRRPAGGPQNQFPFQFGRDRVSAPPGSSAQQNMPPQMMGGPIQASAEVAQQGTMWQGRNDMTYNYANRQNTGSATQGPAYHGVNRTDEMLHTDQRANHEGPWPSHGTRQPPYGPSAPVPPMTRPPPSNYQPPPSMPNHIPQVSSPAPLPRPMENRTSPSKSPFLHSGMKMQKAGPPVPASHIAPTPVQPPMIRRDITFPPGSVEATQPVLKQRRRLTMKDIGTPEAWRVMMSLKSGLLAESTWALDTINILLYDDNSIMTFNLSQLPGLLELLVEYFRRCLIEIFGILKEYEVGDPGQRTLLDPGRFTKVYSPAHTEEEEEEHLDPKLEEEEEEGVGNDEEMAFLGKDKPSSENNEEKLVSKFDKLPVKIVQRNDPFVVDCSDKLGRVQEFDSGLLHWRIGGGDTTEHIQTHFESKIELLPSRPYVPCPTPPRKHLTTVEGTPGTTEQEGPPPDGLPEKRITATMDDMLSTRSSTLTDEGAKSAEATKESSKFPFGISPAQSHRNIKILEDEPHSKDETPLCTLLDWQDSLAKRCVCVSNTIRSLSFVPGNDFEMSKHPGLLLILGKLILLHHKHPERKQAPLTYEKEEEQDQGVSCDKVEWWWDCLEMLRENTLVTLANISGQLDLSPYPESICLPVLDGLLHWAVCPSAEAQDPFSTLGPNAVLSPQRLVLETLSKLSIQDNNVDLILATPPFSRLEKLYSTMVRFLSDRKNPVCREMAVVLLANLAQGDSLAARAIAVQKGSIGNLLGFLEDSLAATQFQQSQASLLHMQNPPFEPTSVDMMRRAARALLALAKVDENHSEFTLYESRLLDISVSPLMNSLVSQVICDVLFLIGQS
UniProt P05627: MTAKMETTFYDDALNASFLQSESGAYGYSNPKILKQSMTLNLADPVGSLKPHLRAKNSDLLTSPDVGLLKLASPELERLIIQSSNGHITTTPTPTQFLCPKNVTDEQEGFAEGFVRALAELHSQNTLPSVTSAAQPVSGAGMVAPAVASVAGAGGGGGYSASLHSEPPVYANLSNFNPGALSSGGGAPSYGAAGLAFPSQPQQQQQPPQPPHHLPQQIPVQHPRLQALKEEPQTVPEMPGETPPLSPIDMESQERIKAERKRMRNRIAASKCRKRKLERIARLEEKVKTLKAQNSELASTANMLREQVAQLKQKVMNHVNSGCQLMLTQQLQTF

Row | binding | Substance
1 | binds | ARID1a (from UniProt A2BH40 1-2283)
2 | binds | c-JUN (from UniProt P05627 1-334)

Reference: article PMC10415178
